The other results are listed elsewhere or left out.
What was measured:
Test in all cases: glycan array binding signal (z-score within array); higher = stronger binding
Conditions in all cases: glycan notation: IUPAC condensed, linker removed
[1] = target: Fuc(a1-2)Gal
Procedure, shortened: (§1)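 From the Consortium for Functional Glycomics database, 3228 arrays were curated, keeping only those whose protein sequence was available. Binding is given as a within-array Z-score averaged across arrays sharing a protein sequence and across linkers. Negative Z-scores can be read as non-binding.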

[2] = target: Fuc(a1-2)Gal(b1-3)GalNAc
Procedure, shortened: as §1

[3] = target: Fuc(a1-2)Gal(b1-3)GalNAc(a1-3)[Fuc(a1-2)]Gal(b1-4)Glc
Procedure, shortened: as §1

[4] = target: Fuc(a1-2)Gal(b1-3)GalNAc(a1-3)[Fuc(a1-2)]Gal(b1-4)GlcNAc
Procedure, shortened: as §1

[5] = target: Fuc(a1-2)Gal(b1-3)GalNAc(b1-3)Gal
Procedure, shortened: as §1

[6] = target: Fuc(a1-2)Gal(b1-3)GalNAc(b1-3)Gal(a1-4)Gal(b1-4)Glc
Procedure, shortened: as §1

[7] = target: Fuc(a1-2)Gal(b1-3)GalNAc(b1-4)[Neu5Ac(a2-3)]Gal(b1-4)Glc
Procedure, shortened: as §1

[8] = target: Fuc(a1-2)Gal(b1-3)GlcNAc
Procedure, shortened: as §1

[9] = target: Fuc(a1-2)Gal(b1-3)GlcNAc(b1-2)Man(a1-3)[Fuc(a1-2)Gal(b1-3)GlcNAc(b1-2)Man(a1-6)]Man(b1-4)GlcNAc(b1-4)GlcNAc
Procedure, shortened: as §1

[10] = target: Fuc(a1-2)Gal(b1-3)GlcNAc(b1-3)Gal(b1-4)Glc
Procedure, shortened: as §1

[11] = target: Fuc(a1-2)Gal(b1-3)GlcNAc(b1-3)[Fuc(a1-3)[Gal(b1-4)]GlcNAc(b1-6)]Gal(b1-4)Glc
Procedure, shortened: as §1

[12] = target: Fuc(a1-2)Gal(b1-3)[Fuc(a1-4)]GlcNAc
Procedure, shortened: as §1

[13] = target: Fuc(a1-2)Gal(b1-3)[Fuc(a1-4)]GlcNAc(b1-2)Man(a1-3)[Fuc(a1-2)Gal(b1-3)[Fuc(a1-4)]GlcNAc(b1-2)Man(a1-6)]Man(b1-4)GlcNAc(b1-4)GlcNAc
Procedure, shortened: as §1

[14] = target: Fuc(a1-2)Gal(b1-3)[Fuc(a1-4)]GlcNAc(b1-3)[Fuc(a1-3)[Gal(b1-4)]GlcNAc(b1-6)]Gal(b1-4)Glc
Procedure, shortened: as §1

[15] = target: Fuc(a1-2)Gal(b1-3)[Fuc(a1-4)]GlcNAc(b1-3)[Gal(b1-4)GlcNAc(b1-6)]Gal(b1-4)Glc
Procedure, shortened: as §1

[16] = target: Fuc(a1-2)Gal(b1-4)Glc
Procedure, shortened: as §1

[17] = target: Fuc(a1-2)Gal(b1-4)Glc6S
Procedure, shortened: as §1

[18] = target: Fuc(a1-2)Gal(b1-4)GlcNAc
Procedure, shortened: as §1

[19] = target: Fuc(a1-2)Gal(b1-4)GlcNAc(b1-2)Man(a1-3)[Fuc(a1-2)Gal(b1-4)GlcNAc(b1-2)Man(a1-6)]Man(b1-4)GlcNAc(b1-4)GlcNAc
Procedure, shortened: as §1

[20] = target: Fuc(a1-2)Gal(b1-4)GlcNAc(b1-3)Gal(b1-4)GlcNAc
Procedure, shortened: as §1

[21] = target: Fuc(a1-2)Gal(b1-4)GlcNAc(b1-3)Gal(b1-4)GlcNAc(b1-3)Gal(b1-4)GlcNAc
Procedure, shortened: as §1

[22] = target: Fuc(a1-2)Gal(b1-4)GlcNAc(b1-3)GalNAc
Procedure, shortened: as §1

[23] = target: Fuc(a1-2)Gal(b1-4)GlcNAc6S
Procedure, shortened: as §1

[24] = target: Fuc(a1-2)Gal(b1-4)[Fuc(a1-3)]GlcNAc
Procedure, shortened: as §1

[25] = target: Fuc(a1-2)Gal(b1-4)[Fuc(a1-3)]GlcNAc(b1-2)Man(a1-3)[Fuc(a1-2)Gal(b1-4)[Fuc(a1-3)]GlcNAc(b1-2)Man(a1-6)]Man(b1-4)GlcNAc(b1-4)GlcNAc
Procedure, shortened: as §1

[26] = target: Fuc(a1-2)Gal(b1-4)[Fuc(a1-3)]GlcNAc(b1-3)Gal(b1-4)[Fuc(a1-3)]GlcNAc
Procedure, shortened: as §1

[27] = target: Fuc(a1-2)Gal(b1-4)[Fuc(a1-3)]GlcNAc(b1-3)Gal(b1-4)[Fuc(a1-3)]GlcNAc(b1-3)Gal(b1-4)[Fuc(a1-3)]GlcNAc
Procedure, shortened: as §1

[28] = target: Fuc(a1-2)Gal6S(b1-4)Glc
Procedure, shortened: as §1

[29] = target: Fuc(a1-2)Gal6S(b1-4)Glc6S
Procedure, shortened: as §1

[30] = target: Fuc(a1-2)Gal6S(b1-4)GlcNAc
Procedure, shortened: as §1

[31] = target: Fuc(a1-2)[Gal(a1-3)]Gal
Procedure, shortened: as §1

[32] = target: Fuc(a1-2)[Gal(a1-3)]Gal(b1-3)GlcNAc
Procedure, shortened: as §1

[33] = target: Fuc(a1-2)[Gal(a1-3)]Gal(b1-3)GlcNAc(b1-2)Man(a1-3)[Fuc(a1-2)[Gal(a1-3)]Gal(b1-3)GlcNAc(b1-2)Man(a1-6)]Man(b1-4)GlcNAc(b1-4)GlcNAc
Procedure, shortened: as §1

[34] = target: Fuc(a1-2)[Gal(a1-3)]Gal(b1-4)Glc
Procedure, shortened: as §1

[35] = target: Fuc(a1-2)[Gal(a1-3)]Gal(b1-4)GlcNAc
Procedure, shortened: as §1

[36] = target: Fuc(a1-2)[Gal(a1-3)]Gal(b1-4)GlcNAc(b1-2)Man(a1-3)[Fuc(a1-2)[Gal(a1-3)]Gal(b1-4)GlcNAc(b1-2)Man(a1-6)]Man(b1-4)GlcNAc(b1-4)GlcNAc
Procedure, shortened: as §1

[37] = target: Fuc(a1-2)[Gal(a1-3)]Gal(b1-4)[Fuc(a1-3)]GlcNAc
Procedure, shortened: as §1

[38] = target: Fuc(a1-2)[Gal(a1-4)]Gal(b1-4)GlcNAc
Procedure, shortened: as §1

[39] = target: Fuc(a1-2)[GalNAc(a1-3)]Gal
Procedure, shortened: as §1

[40] = target: Fuc(a1-2)[GalNAc(a1-3)]Gal(b1-3)GalNAc(a1-3)[Fuc(a1-2)]Gal(b1-4)GlcNAc
Procedure, shortened: as §1

[41] = target: Fuc(a1-2)[GalNAc(a1-3)]Gal(b1-3)GlcNAc
Procedure, shortened: as §1

[42] = target: Fuc(a1-2)[GalNAc(a1-3)]Gal(b1-3)GlcNAc(b1-2)Man(a1-3)[Fuc(a1-2)[GalNAc(a1-3)]Gal(b1-3)GlcNAc(b1-2)Man(a1-6)]Man(b1-4)GlcNAc(b1-4)GlcNAc
Procedure, shortened: as §1

[43] = target: Fuc(a1-2)[GalNAc(a1-3)]Gal(b1-4)Glc
Procedure, shortened: as §1

[44] = target: Fuc(a1-2)[GalNAc(a1-3)]Gal(b1-4)GlcNAc
Procedure, shortened: as §1

[45] = target: Fuc(a1-2)[GalNAc(a1-3)]Gal(b1-4)GlcNAc(b1-2)Man(a1-3)[Fuc(a1-2)[GalNAc(a1-3)]Gal(b1-4)GlcNAc(b1-2)Man(a1-6)]Man(b1-4)GlcNAc(b1-4)GlcNAc
Procedure, shortened: as §1

[46] = target: Fuc(a1-2)[GalNAc(a1-3)]Gal(b1-4)GlcNAc(b1-3)Gal(b1-4)GlcNAc
Procedure, shortened: as §1

[47] = target: Fuc(a1-2)[GalNAc(a1-3)]Gal(b1-4)GlcNAc(b1-3)Gal(b1-4)GlcNAc(b1-3)Gal(b1-4)GlcNAc
Procedure, shortened: as §1

[48] = target: Fuc(a1-2)[GalNAc(a1-3)]Gal(b1-4)[Fuc(a1-3)]GlcNAc
Procedure, shortened: as §1

[49] = target: Fuc(a1-2)[GalNAc(a1-4)]Gal(b1-4)GlcNAc
Procedure, shortened: as §1

[50] = target: Fuc(a1-2)[GalNAc(b1-3)]Gal
Procedure, shortened: as §1

[51] = target: Fuc(a1-3)GlcNAc
Procedure, shortened: as §1

[52] = target: Fuc(a1-3)[Gal(b1-4)]Glc6S
Procedure, shortened: as §1

[53] = target: Fuc(a1-3)[Gal(b1-4)]GlcNAc
Procedure, shortened: as §1

[54] = target: Fuc(a1-3)[Gal(b1-4)]GlcNAc(b1-2)Man(a1-3)[Fuc(a1-3)[Gal(b1-4)]GlcNAc(b1-2)Man(a1-6)]Man(b1-4)GlcNAc(b1-4)GlcNAc
Procedure, shortened: as §1

[55] = target: Fuc(a1-3)[Gal(b1-4)]GlcNAc(b1-3)Gal(b1-3)[Fuc(a1-4)]GlcNAc
Procedure, shortened: as §1

[56] = target: Fuc(a1-3)[Gal(b1-4)]GlcNAc(b1-3)GalNAc
Procedure, shortened: as §1

[57] = target: Fuc(a1-3)[Gal(b1-4)]GlcNAc(b1-4)Gal(b1-4)[Fuc(a1-3)]GlcNAc
Procedure, shortened: as §1

[58] = target: Fuc(a1-3)[Gal(b1-4)]GlcNAc(b1-4)Gal(b1-4)[Fuc(a1-3)]GlcNAc(b1-4)Gal(b1-4)[Fuc(a1-3)]GlcNAc
Procedure, shortened: as §1

[59] = target: Fuc(a1-3)[Gal(b1-4)]GlcNAc(b1-6)[Gal(b1-3)GlcNAc(b1-3)]Gal(b1-4)Glc
Procedure, shortened: as §1

[60] = target: Fuc(a1-3)[Gal(b1-4)]GlcNAc6S
Procedure, shortened: as §1

B1: AcfC (Vibrio cholerae), Q57410 (protein)
chain: MKSKNRFLLISLLSFSTSVFADVNLYGPGGPHVPLIKVAESFEKSQSKRVNITFGPQATWNDKAKKNADILFGASEHSALAIAEGHSERFSKFNIHPVFMREAIILVKKGNPKNIKGMADLLKPGIGIVVNDGAGVSNTSGTAVWEDSVGRMKNVEKLQAFRSNIHVFAPNSGSARKAFVDGEDIDAWITWVDWAIANPTIGDMVRMEDEYRIYRDFNVVLAKNPSSEAIDFFDYLTKSKDAEAIFQHYGWFK
glycan array binding signal (z-score) [1]: 0.487 | glycan array binding signal (z-score) [2]: 0.244 | glycan array binding signal (z-score) [3]: -1.2 | glycan array binding signal (z-score) [4]: -0.225 | glycan array binding signal (z-score) [5]: -0.38 | glycan array binding signal (z-score) [6]: 0.053 | glycan array binding signal (z-score) [7]: -0.09 | glycan array binding signal (z-score) [8]: -0.06 | glycan array binding signal (z-score) [9]: 0.497 | glycan array binding signal (z-score) [10]: 0.385 | glycan array binding signal (z-score) [11]: 1.69 | glycan array binding signal (z-score) [12]: 3.03 | glycan array binding signal (z-score) [13]: 1.04 | glycan array binding signal (z-score) [14]: 1.51 | glycan array binding signal (z-score) [15]: 1.12 | glycan array binding signal (z-score) [16]: 0.311 | glycan array binding signal (z-score) [17]: 1.34 | glycan array binding signal (z-score) [18]: 0.933 | glycan array binding signal (z-score) [19]: -0.17 | glycan array binding signal (z-score) [20]: 1.29 | glycan array binding signal (z-score) [21]: 0.879 | glycan array binding signal (z-score) [22]: -1.41 | glycan array binding signal (z-score) [23]: 0.376 | glycan array binding signal (z-score) [24]: 0.749 | glycan array binding signal (z-score) [25]: 3.03 | glycan array binding signal (z-score) [26]: -0.976 | glycan array binding signal (z-score) [27]: 2.22 | glycan array binding signal (z-score) [28]: 0.849 | glycan array binding signal (z-score) [29]: 1.26 | glycan array binding signal (z-score) [30]: -0.56 | glycan array binding signal (z-score) [31]: -0.643 | glycan array binding signal (z-score) [32]: -0.795 | glycan array binding signal (z-score) [33]: 1.07 | glycan array binding signal (z-score) [34]: -0.493 | glycan array binding signal (z-score) [35]: -0.471 | glycan array binding signal (z-score) [36]: 2 | glycan array binding signal (z-score) [37]: -1.06 | glycan array binding signal (z-score) [38]: 0.213 | glycan array binding signal (z-score) [39]: 0.712 | glycan array binding signal (z-score) [40]: -1.1 | glycan array binding signal (z-score) [41]: 0.69 | glycan array binding signal (z-score) [42]: 0.027 | glycan array binding signal (z-score) [43]: 0.3 | glycan array binding signal (z-score) [44]: -0.063 | glycan array binding signal (z-score) [45]: -0.26 | glycan array binding signal (z-score) [46]: 0.806 | glycan array binding signal (z-score) [47]: 0.499 | glycan array binding signal (z-score) [48]: 0.39 | glycan array binding signal (z-score) [49]: -0.154 | glycan array binding signal (z-score) [50]: -0.701 | glycan array binding signal (z-score) [51]: -1.06 | glycan array binding signal (z-score) [52]: -0.091 | glycan array binding signal (z-score) [53]: -0.258 | glycan array binding signal (z-score) [54]: -0.58 | glycan array binding signal (z-score) [55]: 0.643 | glycan array binding signal (z-score) [56]: 1.43 | glycan array binding signal (z-score) [57]: -0.549 | glycan array binding signal (z-score) [58]: -1.63 | glycan array binding signal (z-score) [59]: 0.646 | glycan array binding signal (z-score) [60]: 0.521
